# According to EP4489718B1, “METHOD FOR ENCAPSULATING A HYDROPHOBIC COMPOUND, SUSPENSION OF STRUCTURED LIPID PARTICLES ACCORDING TO THIS METHOD, AND USES OF SAID SUSPENSION” (SEDERMA, priority 2022, dated 2023):
# At least one read-out could not be matched to a standard name with certainty.
# Type: physicochemical
# Conditions: Franz cell, PVDF 0.1 µm membrane, 3% Tween 80 / 97% water, 32°C; first-order model
# Excerpt: The Franz diffusion cell is the device most used to examine the release profiles of an active ingredient encapsulated in the capsules according to the invention. […] The product to be tested is placed in the upper chamber while the lower chamber collects the recipient fluid which has passed through the membrane. The rate and mechanism of release can be obtained by mathematical modelling. The rate can be calculated using the following first-order equation: […] And the release mechanism can be obtained using the Korsmeyer-Peppas model equation: Mt/M∞ = […] [formula] In which: • t is the release time • Mt is the quantity of released active at t time • M∞ is the total quantity of released active • Mt/M∞ being the fraction of released active at t time; • k is a kinetic constant, a measure of the release rate; and • n the diffusional exponent which gives an indication of the release mechanism of the active and takes on different values depending on the geometry of the release device. […] Selected membrane: […] Eight Franz cells containing the release medium and the membrane were prepared and placed in a temperature-controlled water bath of 32°C. […] The amount added to the membrane was 20% of the saturation concentration to ensure flow conditions. […] All samples collected were analysed for retinol content by HPLC on the day of the experiment. […]
compound,measurement,value
"CC1=C(/C=C/C(C)=C/C=C/C(C)=C/CO)C(C)(C)CCC1 [Free retinol, retinol]",release half-life,12.9 h
